Counter-ions that a name gives are not always drawn. Like-named read-outs stand apart in the source and are kept apart here. Hit rate of the full screen: of about 5,300 compounds, about 130 (2.5%) showed an effect of 50% or more. This is one part of the list.
System: M. mycetomatis strain mm55
Conditions: primary screen, metabolic activity vs growth control, 96 h, 2 µM, inhibitor

CCC(=O)NO [ONC0002308, zami633]
% viability: 45.69%

CCOc1ccccc1C(N)=O [ONC0003166, ethenzamide]
% viability: 67.02%

O=C1C(=O)C([C@H]2CC[C@H](c3ccc(Cl)cc3)CC2)C(=O)c2ccccc21 (some centres unmarked) [ONC0004233, atovaquone]
% viability: 82.03%

N[C@@H]1CCCN(c2c(/C=C3\SC(=O)NC3=O)cccc2-c2ccccc2)C1 [ONC0002158, azd1208]
% viability: 83.32%

CO[C@H]1C[C@@H]2CC[C@@H](C)[C@@](O)(O2)C(=O)C(=O)N2CCCC[C@H]2C(=O)O[C@H]([C@H](C)C[C@@H]2CC[C@@H](O)[C@H](OC)C2)CC(=O)[C@H](C)/C=C(\C)[C@@H](O)[C@@H](OC)C(=O)[C@H](C)C[C@H](C)/C=C/C=C/C=C/1C [ONC0001958, rapamycin]
% viability: 83.67%

Cc1cc(O)c(C(=O)N[C@@H](C(=O)N[C@@H]2C(=O)N3C(C(=O)O)=C(CSc4nnnn4C)CS[C@H]23)c2ccc(O)cc2)cn1.[Na] [ONC0002260, cefpiramide sodium]
% viability: 135.6%

CN(CCOc1ccc(NS(C)(=O)=O)cc1)CCc1ccc(NS(C)(=O)=O)cc1 [ONC0005010, dofetilide tikosyn]
% viability: 99.33%

CC(=O)N1CCN(c2ccc(OCC3COC(Cn4ccnc4)(c4ccc(Cl)cc4Cl)O3)cc2)CC1 (centres unmarked) [Ketoconazole]
% viability: 1.788%

Cc1[nH]c(/C=C2\C(=O)Nc3ccccc32)c(C)c1CCC(=O)O [ONC0002635, orantinib]
% viability: 79.1%

COc1cc(C=O)ccc1O [ONC0004482, vanillin]
% viability: 112.7%

COc1ccc2cccc(CCNC(C)=O)c2c1 [ONC0004782, agomelatine]
% viability: 103.1%

CN(C)CCCCSC(=N)N [ONC0002634, skf91488]
% viability: 74.33%

O=C(NCc1cccc(O)c1)Nc1nc(-c2ccncc2)cs1 [ONC0005121, rki1447]
% viability (Madurella mycetomatis metabolic activity at 2µM (%)): 69.4%

CNc1ncc2cc(-c3cc(NC(=O)NCCC(C)(C)C)c(F)cc3C)c(C)nc2n1 [ONC0004544, ly3009120]
% viability: 68.8%

C#C[C@]1(O)CC[C@H]2[C@@H]3CCc4cc(OC)ccc4[C@H]3CC[C@@]21C [ONC0000489, mestranol]
% viability: 69.04%

CC(C)(C)NS(=O)(=O)c1cncc(-c2cc(F)c3nc(N)nn3c2)c1 [ONC0000027, czc24832]
% viability: 70.34%

O=C(O)P(=O)(O)O [ONC0000571, foscarnet sodium]
% viability: 78.67%

CCc1cccc(CC)c1NC(=O)c1nn(C)c2c1CCc1cnc(Nc3ccc(C(=O)NC4CCN(C)CC4)cc3OC(F)(F)F)nc1-2 [ONC0002233, nmsp715]
% viability: 70.47%

CCCCCCCCCCCCCCCC[N+](C)(C)CCN(Cc1ccc(OC)cc1)c1ncccn1 [ONC0004345, thonzonium bromide]
% viability: 90.73%

COc1cc(OC)cc(N(CCNC(C)C)c2ccc3ncc(-c4cnn(C)c4)nc3c2)c1 [ONC0001225, erdafitinib]
% viability: 103.9%

Cc1nc(C)c(Cl)c(O)c1Cl [ONC0004145, clopidol]
% viability: 65.11%

CCN(CC)CCCC(C)Nc1c2ccc(Cl)cc2nc2ccc(OC)cc12 (centres unmarked) [ONC0003413, quinacrine hydrochloride]
% viability: 84.04%

O=C(NO)C1(CS(=O)(=O)c2ccc(Oc3ccc(Cl)cc3)cc2)CCOCC1 [ONC0001029, cts1027]
% viability: 72.65%

CC(C)C[C@H](NC(=O)[C@@H](O)[C@H](N)Cc1ccccc1)C(=O)O [ONC0001526, ubenimex]
% viability: 79.55%

COc1ccc(-n2nc3c4c([nH]cc-3c2=O)CCCCC4)cc1 [ONC0003560, cgs20625]
% viability: 134.6%

O=P(O)(O)C(O)(Cc1cnc2ccccn12)P(=O)(O)O [ONC0000278, minodronic acid hydrate]
% viability: 88.21%

C=CCc1ccc(O)c(-c2ccc(O)c(CC=C)c2)c1 [ONC0004944, honokiol]
% viability: 100.4%

COc1cc([C@@H]2c3cc4c(cc3[C@H](O)[C@H]3COC(=O)[C@H]23)OCO4)cc(OC)c1OC [ONC0005295, podofilox]
% viability: 58.67%

COc1cc2c(cc1OC)-c1cc3ccc(OC)c(OC)c3c[n+]1CC2 [ONC0004992, palmatine chloride]
% viability: 94.43%

COC(=O)[C@H]1[C@H]2C[C@@H]3c4[nH]c5cc(OC)ccc5c4CCN3C[C@H]2C[C@@H](OC(=O)c2cc(OC)c(OC)c(OC)c2)[C@@H]1OC [ONC0003379, reserpine]
% viability: 59.45%

Cc1cc(-c2nc(-c3ccc(OC(F)(F)F)cc3)no2)nn1Cc1ccnc(N2CCN(C3CC3)CC2)c1 [ONC0000748, bay 872243]
% viability: 74%

CN(C)CCCSc1ccccc1NC(=O)/C=C/c1ccccc1 [ONC0001570, cinanserin]
% viability: 74.68%

Cc1nc2cnc3ccc(C#Cc4cccnc4)cc3c2n1-c1ccc(C(C)(C)C#N)cc1 [ONC0000261, bag956]
% viability: 56.93%

CN1C(=O)N(c2cc(Cl)cc(Cl)c2)C(=O)[C@]12CN(c1ccc(C(=O)O)cn1)C[C@H]2c1ccc(C#N)cc1 [ONC0001955, bms688521]
% viability: 85.35%

O=C(NOCCO)c1cc(CN2OCCCC2=O)c(F)c(F)c1Nc1ccc(I)cc1F [ONC0000778, ro4987655]
% viability: 63.33%

Nc1c2c(nc3c1CCC3)CCCC2 [ONC0002870, ipidacrine]
% viability: 76.26%

O=C(O)c1ccc(Nc2ncc3c(n2)-c2ccc(Cl)cc2C(c2c(F)cccc2F)=NC3)cc1 [ONC0004728, mln8054]
% viability: 102.9%

C[C@H](NC(=O)Cc1cc(F)cc(F)c1)C(=O)N[C@@H]1C(=O)N(C)c2ccccc2-c2ccccc21 [ONC0005046, yo01027 dibenzazepine]
% viability: 68.73%

O=c1c(-c2ccc(O)cc2)coc2cc(O)cc(O)c12 [ONC0003259, genistein]
% viability: 82.01%

CCOC(=O)Nc1ccc2c(c1)N(C(=O)CCN1CCOCC1)c1ccccc1S2 [ONC0002922, moracizine]
% viability: 68.55%

N[C@H](Cc1ccccc1)C(=O)O [ONC0002457, dphenylalanine]
% viability: 101.3%

Cc1cn(C2CC(N=[N+]=[N-])C(CO)O2)c(=O)[nH]c1=O (centres unmarked) [ONC0004065, zidovudine azt]
% viability: 88.54%

OCc1ccc(-c2ccc(-c3ccc(CO)s3)o2)s1 [ONC0005235, rita nsc 652287]
% viability: 156.1%

N=C(N)SCCc1cnc[nH]1 [ONC0004439, imetit]
% viability: 120.7%

CNC[C@H](O)c1cccc(O)c1 [ONC0000459, lphenylephrine hydrochloride]
% viability: 72.58%

O=C1Nc2cc(Cl)c(Cl)cc2N2CCNCC12 (centres unmarked) [ONC0001784, way161503]
% viability: 127.3%

CC(=O)NNC(=O)N1Cc2ccccc2Oc2ccc(Cl)cc21 [ONC0000146, sc19220]
% viability: 93.82%

N[C@@H]1CN(c2c(F)cc3c(=O)c(C(=O)O)cn([C@@H]4C[C@@H]4F)c3c2Cl)CC12CC2 [ONC0004951, sitafloxacin hydrate]
% viability: 68.99%

CCCCCCN(CCCCCC)C(=O)Cc1c(-c2ccc(F)cc2)[nH]c2ccccc12 [ONC0003019, fgin127]
% viability: 82%

CCN(CC)CCNC(=O)c1ccc(NC(C)=O)cc1 [ONC0005520, acecainide hydrochloride]
% viability: 103.1%

CN1C(=O)CC(C)(c2ccccc2)C1=O (centres unmarked) [ONC0003975, methsuximide]
% viability: 103.1%

Cc1nc(Nc2n[nH]c3c2CN(C(=O)N[C@H](CN(C)C)c2ccccc2)C3(C)C)c2sccc2n1 [ONC0000912, pf3758309]
% viability: 82.32%

CC(C)=CCC/C(C)=C/CC/C(C)=C/C=C/C(C)=C/C(=O)O [ONC0000885, peretinoin]
% viability: 65.8%

CCn1cc(-c2ccnc3[nH]c(-c4cccc(CN(C)C)c4)cc23)c(-c2ccc(NC(=O)N(C)C)cc2)n1 [ONC0004351, gsk1070916]
% viability: 110.4%

CCC(=O)NS(=O)(=O)c1ccc(-c2c(-c3ccccc3)noc2C)cc1 [ONC0000995, parecoxib]
% viability: 79.02%

CCOc1ccn(-c2ccc(F)cc2)c(=O)c1C(=O)Nc1ccc(Oc2ccnc(N)c2Cl)c(F)c1 [ONC0004593, bms 777607]
% viability: 73.11%

CCN(CC)CCN(Cc1ccc(-c2ccc(C(F)(F)F)cc2)cc1)C(=O)Cn1c(SCc2ccc(F)cc2)nc(=O)c2c1CCC2 [ONC0000791, darapladib]
% viability: 84.74%

CC(C)(C)NCC(O)COc1cccc2[nH]c(C#N)cc12 (centres unmarked) [ONC0002675, cyanopindolol]
% viability: 69.14%

N#C[C@@H]1CCCN1C(=O)CNC12CC3CC(CC(O)(C3)C1)C2 [ONC0004521, vildagliptin laf237]
% viability: 61.97%

COc1ccc(/C=C\c2cc(OC)c(OC)c(OC)c2)cc1OP(=O)(O)O [ONC0002263, fosbretabulin disodium]
% viability: 117.4%

CC(C)c1cc2c(cc1S(=O)(=O)O)[C@@]1(C)CCC[C@@](C)(C(=O)O)[C@@H]1CC2 [ONC0002185, ecabet]
% viability: 89.11%

COc1cc(F)c(C(C)C)cc1-c1ccc(C(F)(F)F)cc1CN1C(=O)O[C@H](c2cc(C(F)(F)F)cc(C(F)(F)F)c2)[C@H]1C [ONC0004634, anacetrapib mk0859]
% viability: 81.34%

From publication PMC12670160, “A drug-repurposing screen of FDA- and EMA-approved drugs identifies two NF-κB inhibitors active against eumycetoma” (Journal of Antimicrobial Chemotherapy, 2025)
